From paper PMC6029018
Results are given in words; binding and its absence hold for the method and conditions named. In cells and extracts the contact can be indirect. Some results given as binding are weak or reduced against the parent protein; the word gives no strength.

Chains of the proteins cited; added tags and fusions are not shown.
UniProt Q9UNS2: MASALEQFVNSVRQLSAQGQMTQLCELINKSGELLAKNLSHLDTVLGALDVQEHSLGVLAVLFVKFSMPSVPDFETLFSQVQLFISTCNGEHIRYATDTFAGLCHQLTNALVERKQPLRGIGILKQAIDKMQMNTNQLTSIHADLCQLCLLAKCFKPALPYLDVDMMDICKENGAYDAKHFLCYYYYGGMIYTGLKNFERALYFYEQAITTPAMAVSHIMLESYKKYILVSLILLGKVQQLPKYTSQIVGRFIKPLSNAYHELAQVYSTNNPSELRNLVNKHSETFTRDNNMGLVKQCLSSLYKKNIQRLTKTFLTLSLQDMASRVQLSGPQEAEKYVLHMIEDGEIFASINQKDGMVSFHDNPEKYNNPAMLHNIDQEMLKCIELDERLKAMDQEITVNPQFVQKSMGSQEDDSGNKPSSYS
UniProt Q14457: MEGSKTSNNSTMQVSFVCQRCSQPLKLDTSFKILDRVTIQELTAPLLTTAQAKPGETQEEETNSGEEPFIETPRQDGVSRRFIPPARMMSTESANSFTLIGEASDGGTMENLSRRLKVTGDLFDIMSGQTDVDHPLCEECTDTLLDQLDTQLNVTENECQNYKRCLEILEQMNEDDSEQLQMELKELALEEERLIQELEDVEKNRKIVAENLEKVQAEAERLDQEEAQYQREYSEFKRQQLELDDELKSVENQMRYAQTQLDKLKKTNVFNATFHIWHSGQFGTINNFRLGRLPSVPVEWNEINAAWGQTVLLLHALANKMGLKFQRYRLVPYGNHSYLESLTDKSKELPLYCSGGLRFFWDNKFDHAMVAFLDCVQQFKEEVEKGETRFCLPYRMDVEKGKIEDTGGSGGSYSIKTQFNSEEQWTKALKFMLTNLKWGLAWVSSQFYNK

Legend:
[1] = molecular target: COP9 signalosome subunit 3 (COPS3) (human (endogenous in 143B and HOS)) (UniProt Q9UNS2); experiment: co-IP; endogenous proteins in whole cell lysates of 143B or HOS cells; antibody (COPS3 or Raf-1) 3 h at 4 °C, Protein A-Agarose 1 h, washed three times with lysis solution, immunoblot; for LC3 cells with or without 1 mM H2O2 for 4 h
[2] = molecular target: COP9 signalosome subunit 3 (COPS3) (human (endogenous in 143B and HOS)) (UniProt Q9UNS2); experiment: co-IP; endogenous proteins in separated cytoplasmic and nuclear extracts of 143B or HOS cells (NE-PER reagents); anti-COPS3 precipitation, Protein A-Agarose, immunoblot for Beclin1
[3] = molecular target: Raf-1 kinase (human (endogenous in 143B and HOS)) (UniProt P04049); experiment: co-IP; endogenous proteins in whole cell lysates of 143B or HOS cells; antibody (COPS3 or Raf-1) 3 h at 4 °C, Protein A-Agarose 1 h, washed three times with lysis solution, immunoblot; for LC3 cells with or without 1 mM H2O2 for 4 h

binding [1]	binding [2]	binding [3]	Substance
binds	binds		Beclin1 (from UniProt Q14457 1-450)
binds			Raf-1 kinase (from UniProt P04049 1-648)
		binds	COP9 signalosome subunit 3 (COPS3) (from UniProt Q9UNS2 1-423)
